PubChem BioAssay AID1224826, NIAID | 2016

- Purpose: 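Genes that change LPS-induced Tnf promoter activity in mouse macrophages when knocked down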 (primary screen)
- Cell system: RAW264.7 G9 macrophages from mouse bearing reporters for p65 (GFP) and the Tnf promoter (mCherry)
- Reagent: siRNA pool against mouse genes, 100 nM
- Timing: 16 h of LPS stimulation, after 2 days of siRNA transfection
- Challenge: bacterial lipopolysaccharide (Salmonella minnesota R595), 10 ng/ml
- Detection: 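Nuclear mCherry signal of the Tnf promoter reporter measured by imaging after background removal, scaled to each plate median and turned into robust z-scores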
- Scale: Tnf reporter robust z-score: higher = stronger Tnf promoter reporter signal after LPS
- Rule for the call: 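Called active when robust z-score is at most -1.3, matching the median of the Tlr4 knock-down control, or over 3; control wells and wells with under 50 cells never active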
- Calls: active = Tnf reporter clearly lowered or raised; inactive = no clear change in Tnf reporter
In all, the deposit lists about 17,000 reagents; shown is a random part of them. About 1,110 of them (6.6%) were called active. 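Active means lowered or raised reporter signal; replicate intensities are raw and not normalised per plate.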 Further read-outs or replicates are left out here.

Apbb1 (amyloid beta precursor protein binding family B member 1) scored Tnf reporter robust z-score -0.37; fewer than 50 cells in well enough cells in well; inactive.
For Frmd5 (FERM domain containing 5) the deposit lists fewer than 50 cells in well fewer than 50 cells per well; well left out of calls; inactive.
After knock-down of Abhd12 (abhydrolase domain containing 12), the screen gave Tnf reporter robust z-score 1.73; fewer than 50 cells in well enough cells in well; inactive.
Hesx1 (homeobox gene expressed in ES cells) showed Tnf reporter robust z-score -0.43; fewer than 50 cells in well enough cells in well; inactive.
For Maz, the values are Tnf reporter robust z-score -0.26; fewer than 50 cells in well enough cells in well; inactive.
Knock-down of Sf3b2 (splicing factor 3b, subunit 2) resulted in: fewer than 50 cells in well fewer than 50 cells per well; well left out of calls; inactive.
Ptcd1 (pentatricopeptide repeat domain 1) scored Tnf reporter robust z-score 0.47; fewer than 50 cells in well enough cells in well; inactive.
For Rpl23a (ribosomal protein L23A) the deposit lists fewer than 50 cells in well fewer than 50 cells per well; well left out of calls; inactive.
For Ncapd3 (non-SMC condensin II complex, subunit D3), the values are Tnf reporter robust z-score 1.06; fewer than 50 cells in well enough cells in well; inactive.
Silencing of Or4c108 (olfactory receptor family 4 subfamily C member 108) gave: Tnf reporter robust z-score 0.43; fewer than 50 cells in well enough cells in well; inactive.
Serpina7 scored Tnf reporter robust z-score 1.01; fewer than 50 cells in well enough cells in well; inactive.

Quoted from above (2 entries):
Sf3b2 (splicing factor 3b, subunit 2) | fewer than 50 cells in well = fewer than 50 cells per well; well left out of calls; outcome = inactive
Ptcd1 (pentatricopeptide repeat domain 1) | Tnf reporter robust z-score = 0.47; fewer than 50 cells in well = enough cells in well; outcome = inactive

Continued:
Ssbp4 (single stranded DNA binding protein 4) scored Tnf reporter robust z-score -0.94; fewer than 50 cells in well enough cells in well; inactive.
Against Psmc4 (proteasome (prosome, macropain) 26S subunit, ATPase, 4), the values are fewer than 50 cells in well fewer than 50 cells per well; well left out of calls; inactive.
Fam219b (family with sequence similarity 219, member B) gave fewer than 50 cells in well fewer than 50 cells per well; well left out of calls; inactive.
For Hoxb9 (homeobox B9), the entry reads Tnf reporter robust z-score 0.07; fewer than 50 cells in well enough cells in well; inactive.
After knock-down of Colgalt1 (collagen beta(1-O)galactosyltransferase 1), the record shows Tnf reporter robust z-score 2.57; fewer than 50 cells in well enough cells in well; inactive.
After knock-down of Or5d38 (olfactory receptor family 5 subfamily D member 38), the screen gave Tnf reporter robust z-score 1.83; fewer than 50 cells in well enough cells in well; inactive.
Depletion of Wasf1 (WASP family, member 1) gave: Tnf reporter robust z-score -0.91; fewer than 50 cells in well enough cells in well; inactive.
Silencing of Gem (GTP binding protein overexpressed in skeletal muscle) resulted in: Tnf reporter robust z-score 0.81; fewer than 50 cells in well enough cells in well; inactive.
Fpr1 (formyl peptide receptor 1) showed Tnf reporter robust z-score -1.15; fewer than 50 cells in well enough cells in well; inactive.
With knock-down of Ambp (alpha 1 microglobulin/bikunin precursor) the results were Tnf reporter robust z-score -0.26; fewer than 50 cells in well enough cells in well; inactive.
